Measurements as given in paper PMC8942331.
Results are given in words; binding and its absence hold for the method and conditions named. In cells and extracts the contact can be indirect. Some entries that bind do so weakly or less than the wild type.

Sequences of proteins named here, by UniProt entry; tags and fusion partners are left off.
UniProt P35222: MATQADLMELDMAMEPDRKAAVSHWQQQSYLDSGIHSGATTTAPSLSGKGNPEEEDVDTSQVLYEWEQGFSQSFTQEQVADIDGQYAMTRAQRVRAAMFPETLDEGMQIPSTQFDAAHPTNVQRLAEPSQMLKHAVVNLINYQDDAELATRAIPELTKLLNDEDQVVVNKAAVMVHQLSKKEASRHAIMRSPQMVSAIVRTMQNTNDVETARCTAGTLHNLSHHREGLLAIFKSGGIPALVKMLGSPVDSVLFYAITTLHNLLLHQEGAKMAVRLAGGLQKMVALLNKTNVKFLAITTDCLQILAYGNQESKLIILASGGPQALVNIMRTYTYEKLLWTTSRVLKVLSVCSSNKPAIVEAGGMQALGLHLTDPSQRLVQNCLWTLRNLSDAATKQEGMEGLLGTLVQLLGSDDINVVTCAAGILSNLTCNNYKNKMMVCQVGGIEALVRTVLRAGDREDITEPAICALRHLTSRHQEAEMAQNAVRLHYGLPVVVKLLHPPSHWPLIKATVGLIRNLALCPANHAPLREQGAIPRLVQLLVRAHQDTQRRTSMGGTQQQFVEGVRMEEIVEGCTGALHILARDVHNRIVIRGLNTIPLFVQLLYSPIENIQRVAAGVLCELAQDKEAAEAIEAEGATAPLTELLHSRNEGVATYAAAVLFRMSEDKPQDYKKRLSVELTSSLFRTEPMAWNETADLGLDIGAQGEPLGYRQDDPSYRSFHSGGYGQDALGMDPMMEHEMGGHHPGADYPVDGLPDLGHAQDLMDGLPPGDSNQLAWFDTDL

Biological target: T1, Vitamin D receptor (human (endogenous in K1 cells)) (UniProt P11473)
T1 sequence: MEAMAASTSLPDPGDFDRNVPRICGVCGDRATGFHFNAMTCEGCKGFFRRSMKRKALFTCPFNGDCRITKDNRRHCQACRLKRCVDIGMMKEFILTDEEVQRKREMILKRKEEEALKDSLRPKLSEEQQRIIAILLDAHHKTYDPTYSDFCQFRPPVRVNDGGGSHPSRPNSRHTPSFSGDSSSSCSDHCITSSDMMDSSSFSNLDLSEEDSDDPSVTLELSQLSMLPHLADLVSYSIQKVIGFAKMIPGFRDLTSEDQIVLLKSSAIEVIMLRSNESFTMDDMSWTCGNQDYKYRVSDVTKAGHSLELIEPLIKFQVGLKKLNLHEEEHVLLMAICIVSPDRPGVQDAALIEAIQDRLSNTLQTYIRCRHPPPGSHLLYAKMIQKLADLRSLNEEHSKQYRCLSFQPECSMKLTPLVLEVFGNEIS
Test: co-IP; membrane protein extracts of K1 cells (100 µg) incubated with 2 µg anti-VDR antibody or rabbit IgG overnight at 4°C, protein G plus/protein A agarose beads, washes with PBS, Western blot for VDR, E-cadherin and β-catenin

binding: binds
Substance: β-catenin (from UniProt P35222 1-781)
